From publication PMC6735515
No constants are given. Whether binding was seen depends on the method and setting. Binding seen in cells or lysates may run through a third protein. Some results given as binding are weak or reduced against the parent protein; the word gives no strength.

Experiments:
[1] = molecular target: T1, Caveolin-1 (mouse (endogenous in mouse neutrophils)) (UniProt P49817); assay: co-IP; whole cell lysates of neutrophils from non-treated mice (control conditions, no InP); immunoprecipitation with anti-Cav-1 or anti-TLR9 antibody, immunoblot for the other protein
T1 sequence: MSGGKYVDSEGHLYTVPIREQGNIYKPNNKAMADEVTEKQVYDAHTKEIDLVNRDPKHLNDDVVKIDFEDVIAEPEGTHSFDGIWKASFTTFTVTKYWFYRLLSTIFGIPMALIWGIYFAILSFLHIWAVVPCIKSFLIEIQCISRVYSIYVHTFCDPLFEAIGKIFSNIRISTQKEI

[2] = molecular target: T1, Caveolin-1 (mouse (endogenous in mouse neutrophils)); assay: co-IP; whole cell lysates of neutrophils from InP-treated mice (also mouse neutrophils treated with MPLA in vitro); immunoprecipitation with anti-Cav-1 or anti-TLR9 antibody, protein-G agarose, immunoblot for the other protein; control IgG

binding [1]: binds weakly
binding [2]: binds
B1: Toll-like receptor 9 (receptor, UniProt Q9EQU3 26-1032)
chain: LGTLPAFLPCELKPHGLVDCNWLFLKSVPRFSAAASCSNITRLSLISNRIHHLHNSDFVHLSNLRQLNLKWNCPPTGLSPLHFSCHMTIEPRTFLAMRTLEELNLSYNGITTVPRLPSSLVNLSLSHTNILVLDANSLAGLYSLRVLFMDGNCYYKNPCTGAVKVTPGALLGLSNLTHLSLKYNNLTKVPRQLPPSLEYLLVSYNLIVKLGPEDLANLTSLRVLDVGGNCRRCDHAPNPCIECGQKSLHLHPETFHHLSHLEGLVLKDSSLHTLNSSWFQGLVNLSVLDLSENFLYESITHTNAFQNLTRLRKLNLSFNYRKKVSFARLHLASSFKNLVSLQELNMNGIFFRLLNKYTLRWLADLPKLHTLHLQMNFINQAQLSIFGTFRALRFVDLSDNRISGPSTLSEATPEEADDAEQEELLSADPHPAPLSTPASKNFMDRCKNFKFTMDLSRNNLVTIKPEMFVNLSRLQCLSLSHNSIAQAVNGSQFLPLTNLQVLDLSHNKLDLYHWKSFSELPQLQALDLSYNSQPFSMKGIGHNFSFVTHLSMLQSLSLAHNDIHTRVSSHLNSNSVRFLDFSGNGMGRMWDEGGLYLHFFQGLSGLLKLDLSQNNLHILRPQNLDNLPKSLKLLSLRDNYLSFFNWTSLSFLPNLEVLDLAGNQLKALTNGTLPNGTLLQKLDVSSNSIVSVVPAFFALAVELKEVNLSHNILKTVDRSWFGPIVMNLTVLDVRSNPLHCACGAAFVDLLLEVQTKVPGLANGVKCGSPGQLQGRSIFAQDLRLCLDEVLSWDCFGLSLLAVAVGMVVPILHHLCGWDVWYCFHLCLAWLPLLARSRRSAQTLPYDAFVVFDKAQSAVADWVYNELRVRLEERRGRRALRLCLEDRDWLPGQTLFENLWASIYGSRKTLFVLAHTDRVSGLLRTSFLLAQQRLLEDRKDVVVLVILRPDAHRSRYVRLRQRLCRQSVLFWPQQPNGQGGFWAQLSTALTRDNRHFYNQNFCRGPTAE
